{"source": "paper doi:10.1101/2022.12.14.520480", "target": "T1, HA-TBC1D15 wild type (UniProt Q8TC07)", "T1 sequence": "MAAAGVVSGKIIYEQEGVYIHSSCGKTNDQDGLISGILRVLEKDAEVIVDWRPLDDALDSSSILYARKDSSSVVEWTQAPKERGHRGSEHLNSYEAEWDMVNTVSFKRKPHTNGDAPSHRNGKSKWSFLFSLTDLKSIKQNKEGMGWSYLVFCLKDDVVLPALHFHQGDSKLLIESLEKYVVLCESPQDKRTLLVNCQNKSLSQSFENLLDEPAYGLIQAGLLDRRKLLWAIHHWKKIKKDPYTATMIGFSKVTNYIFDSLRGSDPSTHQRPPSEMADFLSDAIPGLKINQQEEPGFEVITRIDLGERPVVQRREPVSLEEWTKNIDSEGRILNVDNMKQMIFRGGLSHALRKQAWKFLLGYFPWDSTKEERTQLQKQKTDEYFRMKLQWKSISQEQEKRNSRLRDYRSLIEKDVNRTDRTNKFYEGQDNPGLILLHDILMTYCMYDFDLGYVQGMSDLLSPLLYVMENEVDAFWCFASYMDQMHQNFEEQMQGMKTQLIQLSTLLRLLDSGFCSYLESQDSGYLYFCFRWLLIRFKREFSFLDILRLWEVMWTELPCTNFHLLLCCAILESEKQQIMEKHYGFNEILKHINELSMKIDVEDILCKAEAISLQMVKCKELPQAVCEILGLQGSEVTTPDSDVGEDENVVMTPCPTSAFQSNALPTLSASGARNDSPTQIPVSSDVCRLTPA", "assay": "affinity purification with mass spectrometry", "note": "These are yes or no findings as the source states them, for the method shown. Binding seen in cells or lysates may run through a third protein. These calls come from enrichment with a bait or labelling near it, and not all partners need be listed. Tags and fused reporters may be left off the sequences shown."}
{"substance": "Clathrin heavy chain CLTC (endogenous) (from UniProt Q00610 1-1675)", "values": [{"measurement": "binding", "result": "binds"}]}
